# The list does not hold the whole screen: it gathers tests that were run many times, whatever their T/C, doses with no T/C, and many T/C values between a quarter and a half above the control. Further doses and runs are listed elsewhere. T/C: endpoint of the treated group in % of that of the vehicle group. Some doses have a count of surviving animals in place of a T/C: the source files T/C as zero there, which appears to mark a toxic dose or a test without result, not a measured value. Some doses without a T/C left all or most animals alive at the check, yet need not have been tolerated: survival well below the control is almost never listed, so the zero probably covers shortened survival too. Counts of survivors are from the toxicity check (mostly the fifth day) where no day follows; animals may have died later. Schedule codes are those of the source, taken here to give the interval after Q, in days (D) or hours (H), and the number of doses after X. Some entries were tested several times; the values are given in rising order. Some schedules carry Z or #; the key to these is not given. For survival time, this PubChem deposit counts one and a half times the control or more as active, and values a quarter to a half above the control carry no call in these data; other NCI protocols may use other cut-offs.
# System: L1210 leukemia ip in BDF1 mice, survival T/C
# Experiment: NCI In Vivo Anticancer Drug Screen. Data for tumor model L1210 Leukemia (intraperitoneal) in B6D2F1 (BDF1) mice
# Conditions: T/C endpoint: mean survival time, higher T/C = longer survival
# [1] = dose: 100.0 mg/kg/injection, schedule: Q04DX002 (ip), vehicle: saline with Tween-80
# [2] = dose: 400.0 mg/kg/injection, schedule: Q04DX003 (ip), vehicle: Klucel (hydroxypropylcellulose) (HPC)
# [3] = dose: 100.0 mg/kg/injection, schedule: Q04DX002 (ip), vehicle: Klucel (hydroxypropylcellulose) (HPC)
# [4] = dose: 200.0 mg/kg/injection, schedule: Q04DX002 (ip), vehicle: Klucel (hydroxypropylcellulose) (HPC)
# [5] = dose: 400.0 mg/kg/injection, schedule: Q04DX002 (ip), vehicle: Klucel (hydroxypropylcellulose) (HPC)
# [6] = dose: 200.0 mg/kg/injection, schedule: Q01DX001 (ip), vehicle: saline
# [7] = dose: 400.0 mg/kg/injection, schedule: Q04DX003 (ip), vehicle: saline
# [8] = dose: 300.0 mg/kg/injection, schedule: Q01DX001 (ip), vehicle: saline
# [9] = dose: 100.0 mg/kg/injection, schedule: Q01DX009 (ip), vehicle: Klucel (hydroxypropylcellulose) (HPC)
# [10] = dose: 400.0 mg/kg/injection, schedule: Q01DX009 (ip), vehicle: Klucel (hydroxypropylcellulose) (HPC)
# [11] = dose: 400.0 mg/kg/injection, schedule: Q01DX001 (ip), vehicle: saline
# [12] = dose: 200.0 mg/kg/injection, schedule: Q01DX001 (ip), vehicle: saline with Tween-80
compound,measurement,setting,value
CC1=C(C)CC(c2ccccc2)C(C(=O)O)C1 (stereo not drawn),survivor count,"dose: 600.0 mg/kg/injection, schedule: Q01DX001 (ip), vehicle: other",0 of 6
O[C@H]1[C@H]2c3cc4c(cc3CN3CCC(=C[C@@H]1O)[C@H]23)OCO4,survivor count,"dose: 50.0 mg/kg/injection, schedule: Q01DX Z (ip), vehicle: steroid suspending solution",0 of 4
same,survivor count,"dose: 100.0 mg/kg/injection, schedule: Q01DX Z (ip), vehicle: steroid suspending solution",1 of 4
same,survivor count,"dose: 125.0 mg/kg/injection, schedule: Q01DX Z (ip), vehicle: steroid suspending solution",1 of 4 and 4 of 4
CCOC(=O)c1ccc(N(CC(O)CN=[N+]=[N-])S(=O)(=O)c2ccc(C)cc2)cc1 (stereo not drawn),survivor count,[1],3 of 3
same,survivor count,"dose: 200.0 mg/kg/injection, schedule: Q04DX003 (ip), vehicle: saline with Tween-80",6 of 6
CN1CCCN(C)CC1,survivor count,"dose: 100.0 mg/kg/injection, schedule: Q01DX009 (ip), vehicle: saline with Tween-80",3 of 6
same,survivor count,"dose: 400.0 mg/kg/injection, schedule: Q01DX009 (ip), vehicle: saline with Tween-80",3 of 6
CC(=O)Nc1cccc(OCCC(=O)O)c1,survivor count,"dose: 200.0 mg/kg/injection, schedule: Q01DX Z (ip), vehicle: methylcellulose (MC)",6 of 6
same,survivor count,"dose: 300.0 mg/kg/injection, schedule: Q01DX Z (ip), vehicle: methylcellulose (MC)",6 of 6
same,survivor count,"dose: 450.0 mg/kg/injection, schedule: Q01DX Z (ip), vehicle: methylcellulose (MC)",6 of 6
same,survivor count,"dose: 675.0 mg/kg/injection, schedule: Q01DX Z (ip), vehicle: methylcellulose (MC)",6 of 6
CC(=O)C(C(=O)NCc1ccccc1)C(c1cccc([N+](=O)[O-])c1)C(C(C)=O)C(=O)NCc1ccccc1 (stereo not drawn),survivor count,"dose: 100.0 mg/kg/injection, schedule: Q04DX003 (ip), vehicle: saline with Tween-80",6 of 6
COc1nccc(SC)n1,T/C,"dose: 200.0 mg/kg/injection, schedule: Q04DX003 (ip), vehicle: Klucel (hydroxypropylcellulose) (HPC)",125 % of control
same,survivor count,"dose: 300.0 mg/kg/injection, schedule: Q04DX003 (ip), vehicle: Klucel (hydroxypropylcellulose) (HPC)",1 of 6
same,survivor count,[2],0 of 6 and 1 of 6
CC12CC3CC(C)(C1)CC(SCCCCCN=C(N)CSSCC(N)=NCCCCCSC14CC5CC(C)(CC(C)(C5)C1)C4)(C3)C2,survivor count,[3],0 of 3
same,survivor count,[4],1 of 3
same,survivor count,[5],1 of 3
CC1CCC(=O)OCCCC(=O)C1 (stereo not drawn),survivor count,[6],4 of 4
Cc1ccc[n+](CCCCCCCC[n+]2cccc(C)c2)c1,survivor count,"dose: 100.0 mg/kg/injection, schedule: Q04DX003 (ip), vehicle: saline",0 of 6
same,survivor count,"dose: 200.0 mg/kg/injection, schedule: Q04DX003 (ip), vehicle: saline",0 of 6
same,survivor count,[7],0 of 6
CN(CCC(C#N)c1ccccc1)C(=O)c1ccccc1 (stereo not drawn),survivor count,[8],0 of 6
O=C(COc1ccc(Cl)cc1Cl)Nc1ccccc1F,survivor count,"dose: 200.0 mg/kg/injection, schedule: Q01DX009 (ip), vehicle: saline with Tween-80",6 of 6
OCCCCCCCCCCCC[n+]1ccc(Cc2ccccc2)cc1,survivor count,"dose: 75.0 mg/kg/injection, schedule: Q01DX001 (ip), vehicle: Klucel (hydroxypropylcellulose) (HPC)",2 of 6
same,survivor count,"dose: 150.0 mg/kg/injection, schedule: Q01DX001 (ip), vehicle: Klucel (hydroxypropylcellulose) (HPC)",0 of 6
same,survivor count,"dose: 300.0 mg/kg/injection, schedule: Q01DX001 (ip), vehicle: Klucel (hydroxypropylcellulose) (HPC)",0 of 6
CCOC(CN1CCOCC1)c1ccccc1 (stereo not drawn),survivor count,"dose: 400.0 mg/kg/injection, schedule: Q04DX002 (ip), vehicle: carboxymethylcellulose (CMC)",2 of 3 and 4 of 6
CCCCOC(=O)c1ccc(OC(=O)Nc2cccc(Cl)c2)cc1,survivor count,[9],3 of 6
same,survivor count,[10],2 of 6
C[CH2][Hg][Cl],survivor count,"dose: 50.0 mg/kg/injection, schedule: Q04DX002 (ip), vehicle: Klucel (hydroxypropylcellulose) (HPC)",1 of 3
same,survivor count,[3],1 of 3
same,survivor count,[6],2 of 4
same,survivor count,[4],2 of 3
same,survivor count,[11],0 of 4
same,survivor count,[5],1 of 3
CCCCC(=O)N(CC)CC,survivor count,"dose: 400.0 mg/kg/injection, schedule: Q01DX001 (ip), vehicle: acetone",3 of 6
COc1ccc(OC)c(NC(=O)Nc2cc(Cl)ccc2C)c1,survivor count,[10],2 of 6
O=C(O)c1cccc(OCc2ccccc2)c1,survivor count,[10],2 of 6
OC[P+](c1ccccc1)(c1ccccc1)c1ccccc1,survivor count,[7],6 of 6
O=C(O)c1cc2ccccc2cn1,survivor count,"dose: 400.0 mg/kg/injection, schedule: Q04DX002 (ip), vehicle: saline",0 of 3
CN(C)C(=O)NCc1ccco1,survivor count,"dose: 100.0 mg/kg/injection, schedule: Q04DX003 (ip), vehicle: other",0 of 6
same,survivor count,"dose: 200.0 mg/kg/injection, schedule: Q04DX003 (ip), vehicle: other",6 of 6
same,survivor count,"dose: 400.0 mg/kg/injection, schedule: Q04DX003 (ip), vehicle: other",2 of 6
NNC(=O)c1c[nH]c2ccccc2c1=O,survivor count,[9],6 of 6
same,survivor count,"dose: 200.0 mg/kg/injection, schedule: Q01DX009 (ip), vehicle: Klucel (hydroxypropylcellulose) (HPC)",6 of 6
same,survivor count,[10],6 of 6
O=C(O)CCC(=O)CC[N+](=O)[O-],survivor count,[8],1 of 6
Cc1ccc(C(C)C)c(OCC[N+]2(CCOc3cc(C)ccc3C(C)C)CC=CC2)c1,survivor count,[1],0 of 3
same,survivor count,"dose: 200.0 mg/kg/injection, schedule: Q04DX002 (ip), vehicle: saline with Tween-80",0 of 3
same,survivor count,"dose: 400.0 mg/kg/injection, schedule: Q04DX002 (ip), vehicle: saline with Tween-80",0 of 3
c1cc(-c2ncc[nH]2)ccn1,survivor count,[12],1 of 3
same,survivor count,"dose: 400.0 mg/kg/injection, schedule: Q01DX001 (ip), vehicle: saline with Tween-80",0 of 3
CSc1ccc(NC(=O)C(C)Oc2ccccc2)cc1 (stereo not drawn),survivor count,[12],6 of 6
CC(C)CN(CC(=O)N1CC(=O)Nc2ccccc21)CC(C)C,survivor count,"dose: 50.0 mg/kg/injection, schedule: Q01DX009 (ip), vehicle: saline",6 of 6
CC(C)(CO)N(CC(=O)O)CC(=O)O,survivor count,[11],1 of 4
COc1cc(C=Nc2ccc(-c3csc(COc4ccccc4)n3)c(Cl)c2)ccc1N(CCCl)CCCl,T/C,"dose: 44.4 mg/kg/injection, schedule: Q01DX001 (ip), vehicle: carboxymethylcellulose (CMC)",127 % of control
same,survivor count,"dose: 66.0 mg/kg/injection, schedule: Q01DX015 (ip), vehicle: carboxymethylcellulose (CMC)",4 of 6
same,T/C,"dose: 66.6 mg/kg/injection, schedule: Q01DX001 (ip), vehicle: carboxymethylcellulose (CMC)",139 % of control
same,T/C,"dose: 100.0 mg/kg/injection, schedule: Q01DX001 (ip), vehicle: carboxymethylcellulose (CMC)",127 % of control
same,T/C,"dose: 100.0 mg/kg/injection, schedule: Q01DX001 (sc), vehicle: carboxymethylcellulose (CMC)",131 % of control
same,survivor count,"dose: 100.0 mg/kg/injection, schedule: Q01DX015 (ip), vehicle: carboxymethylcellulose (CMC)",5 of 6
same,T/C,"dose: 150.0 mg/kg/injection, schedule: Q01DX001 (ip), vehicle: carboxymethylcellulose (CMC)",133 % of control
same,survivor count,"dose: 400.0 mg/kg/injection, schedule: Q01DX001 (sc), vehicle: carboxymethylcellulose (CMC)",0 of 4
O=C(NCCCl)Nc1cccc2c1CCC2,survivor count,[2],6 of 6
Nc1nc(-c2ccccc2)c(CCCCc2ccccc2)c(=O)[nH]1,survivor count,"dose: 100.0 mg/kg/injection, schedule: Q01DX Z (ip), vehicle: carboxymethylcellulose (CMC)",6 of 6
same,survivor count,"dose: 400.0 mg/kg/injection, schedule: Q01DX Z (ip), vehicle: carboxymethylcellulose (CMC)",6 of 6

# From PubChem BioAssay AID248 (DTP/NCI, 2004)
